For part of these data: At least one compound was matched to its structure with a doubt left. Some entries share one result that the patent states for a list of compounds.
Experiments:
tumor = settings: cited from earlier work
BAEC = assay: Apoptosis in vitro (Hoechst nuclear staining) in BAEC; assay type: cell-based, bovine; settings: paclitaxel 100 nM; etoposide 50 μM
Description: Apoptosis was assessed in vitro by examining morphologic changes in nuclear chromatin using bis-benzimide trihydrochloride (Hoechst #33258; Sigma-Aldrich, Milwaukee WI). BAEC and HCAEC monolayer cultures were first detached using 0.25% trypsin and 0.02% EDTA in HBSS and then combined with the floating population of cells. The cell pellet was washed in PBS, resuspended in 3% paraformaldehyde, and incubated for 10 min at 22° C. Following the removal of fixative, cells were resuspended in PBS containing 8 μg/ml of Hoechst-33258. Following a 15-min incubation at 22° C., cells were placed on a glass slide, and scored for the incidence of apoptotic chromatin changes using fluorescence microscope.
Since the ASMase/ceramide pathway is known to play a critical role in endothelial injury and dysfunction, BAEC and HCAEC were treated with paclitaxel (100 nM), etoposide (50 μM), and cisplatin (0.1-50 μM), and endothelial apoptosis was assessed.
To set the basis for experiments involving evaluation of anti-angiogenic therapy in combination with chemotherapy, and the role of ASMase/ceramide pathway in this process, the effects of various factors on the chemotherapy induced cell death were assessed. […]

SMILES | Effect when mistimed (tumor; axitinib 2 or more hours earlier than SDRT or subsequent to SDRT) | Acute tumor endothelial cell apoptosis vs SDRT alone (tumor; axitinib shortly before SDRT) | Tumor response vs SDRT alone (tumor; axitinib shortly before SDRT) | Optimum time of axitinib preceding SDRT (tumor; mice) | Induction of apoptosis, time of drug exposure (BAEC) [h]
CNC(=O)c1ccccc1Sc1ccc2c(/C=C/c3ccccn3)n[nH]c2c1 [axitinib] | no significant additive effect | increases acute tumor endothelial cell apoptosis | increases tumor response | one | –
COc1cc([C@@H]2c3cc4c(cc3[C@@H](O[C@@H]3O[C@@H]5CO[C@@H](C)O[C@H]5[C@H](O)[C@H]3O)[C@H]3COC(=O)[C@H]23)OCO4)cc(OC)c1O [etoposide] | – | – | – | – | ≤ 2
CC(=O)O[C@H]1C(=O)[C@@]2(C)[C@H]([C@H](OC(=O)c3ccccc3)[C@]3(O)C[C@H](OC(=O)[C@H](O)[C@@H](NC(=O)c4ccccc4)c4ccccc4)C(C)=C1C3(C)C)[C@]1(OC(C)=O)CO[C@@H]1C[C@@H]2O [paclitaxel] | – | – | – | – | ≤ 2

— patent US12036212B2, “Enhancement of tumor response to chemotherapy by activation of the asmase/ceramide pathway through timed administration of a short-acting anti-angiogenic agent” (Memorial Sloan-Kettering Cancer Center, priority 2014, dated 2024)
